This test deals with MLH1 (human (endogenous in HEK293)) (UniProt P40692). In words: co-IP; endogenous proteins; whole cell extract of MLH1 proficient HEK293 cells precipitated with protein A/G sepharose and anti-MLH1 or anti-SPTAN1, SDS-PAGE and Western blot; protein A/G sepharose alone as negative control. On the technique in general: Immunoblotting shows a protein as a band on a membrane.

Protein sequences, listed by entry. Tags and fused reporters are not part of them.
UniProt P40692: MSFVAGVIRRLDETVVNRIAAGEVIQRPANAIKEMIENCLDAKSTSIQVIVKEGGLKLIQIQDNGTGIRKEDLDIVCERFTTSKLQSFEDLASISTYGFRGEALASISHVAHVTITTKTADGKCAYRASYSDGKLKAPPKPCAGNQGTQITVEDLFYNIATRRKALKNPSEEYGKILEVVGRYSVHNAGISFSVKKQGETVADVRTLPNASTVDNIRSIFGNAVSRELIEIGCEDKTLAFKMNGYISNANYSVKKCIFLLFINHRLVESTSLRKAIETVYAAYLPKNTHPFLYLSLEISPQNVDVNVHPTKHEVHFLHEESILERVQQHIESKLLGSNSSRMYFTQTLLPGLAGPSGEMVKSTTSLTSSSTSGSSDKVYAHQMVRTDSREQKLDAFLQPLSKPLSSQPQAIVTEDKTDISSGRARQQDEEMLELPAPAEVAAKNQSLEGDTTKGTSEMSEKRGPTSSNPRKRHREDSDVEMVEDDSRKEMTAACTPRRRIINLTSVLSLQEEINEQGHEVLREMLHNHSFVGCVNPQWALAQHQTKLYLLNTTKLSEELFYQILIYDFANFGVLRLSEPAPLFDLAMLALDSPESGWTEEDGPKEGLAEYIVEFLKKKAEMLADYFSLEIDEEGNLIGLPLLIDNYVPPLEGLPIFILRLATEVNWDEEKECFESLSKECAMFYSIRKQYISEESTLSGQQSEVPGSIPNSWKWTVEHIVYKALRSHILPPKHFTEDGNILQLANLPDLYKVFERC

These are yes or no findings as the source states them, for the method shown. In cells and extracts the contact can be indirect. Some binding calls cover weakened binding; strength is not graded here.

In the case of “non-erythroid spectrin αII (SPTAN1) (from UniProt Q13813 1-2472)”, the binding result was “binds”.

Source of the values: publication PMC3904401.
